Taken from: PubChem BioAssay AID504804 (Drosophila RNAi Screening Center, 2011)
The screen tested about 19,000 reagents; below is a random part of those with a known target gene and a result. Over the whole deposit, 47 (0.25%) got an active call. 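Signals are raw, not normalised; exact z-scores behind calls not deposited; actives needed confirmation, so some wells reaching 2 SD are inactive.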 A plus sign joins genes that one reagent is predicted to hit.

Assay: 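dsRNAs that improve Kc cell survival under doxorubicin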 (primary screen)
Cell system: Drosophila Kc cells
Reagents: long dsRNA against Drosophila genes, 0.5 µg dsRNA per well
Timing: 96 h (48 h knock-down, then 48 h drug)
Challenge: doxorubicin 5 µg/ml for 48 h, added 48 h after dsRNA
Detection: 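Viability measured as cellular ATP by luminescence after 48 h knock-down then 48 h doxorubicin at 5 µg/ml; unnormalised plate counts for each replicate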
Scale: raw ATP luminescence: higher = more viable cells, protection from doxorubicin
Call rule: 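z-score of 2 or more over plate mean in both duplicates, retained only when retests and separate dsRNAs confirm the protection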

no.	predicted target	PubChem SID	raw ATP luminescence, replicate 1	raw ATP luminescence, replicate 2	activity call
1	Optix	SID104184870	97817	1.18e5	inactive
2	Optix	SID104187276	57300	46847	inactive
3	Inos (myo-inositol-1-phosphate synthase)	SID104187447	43243	74150	inactive
4	Mtp (Microsomal triacylglycerol transfer protein)	SID104183008	67580	64047	inactive
5	Qtzl (Quetzalcoatl)	SID104181013	3.00e5	3.18e5	inactive
6	Mtl (Mig-2-like)	SID104196543	37430	13130	inactive
7	CG9876	SID104184378	56280	53817	inactive
8	CG8155	SID104186876	91357	64123	inactive
9	CG6791	SID104195910	59100	31340	inactive
10	CCT8 (Chaperonin containing TCP1 subunit 8)	SID104186922	69043	56657	inactive
11	bdwf (bedwarfed)	SID104195324	36340	41257	inactive
12	CG14125	SID104189921	88013	1.68e5	inactive
13	lncRNA:CR42646 (long non-coding RNA:CR42646)	SID104184551	1.08e5	91237	inactive
14	grim	SID104191144	48327	41043	inactive
15	CG5958	SID104182707	20523	30217	inactive
16	cathD (cathepsin D)	SID104187380	32493	1.07e5	inactive
17	CG1138	SID104192322	52930	58920	inactive
18	CG17977	SID104186492	47673	76583	inactive
19	CG15719	SID104199477	3.20e5	3.61e5	inactive
20	Orp8 (Oxysterol-binding protein-related protein 8)	SID104194902	37690	46380	inactive
21	Orp8 (Oxysterol-binding protein-related protein 8)	SID104195504	41427	29837	inactive
22	CG17224	SID104180281	19403	25290	inactive

Next part, starting with the last 2 of the part before.
no.	predicted target	PubChem SID	raw ATP luminescence, replicate 1	raw ATP luminescence, replicate 2	activity call
21	Orp8 (Oxysterol-binding protein-related protein 8)	SID104195504	41427	29837	inactive
22	CG17224	SID104180281	19403	25290	inactive
23	CG17298	SID104195013	48950	39810	inactive
24	Atg4b (Autophagy-related 4b)	SID104195780	32350	36713	inactive
25	mei-217 + mei-218	SID104200141	3.54e5	3.16e5	inactive
26	Pxn (Peroxidasin)	SID104188477	87570	74490	inactive
27	okr (okra)	SID104180626	1.11e5	68730	inactive
28	Cyp310a1 (Cytochrome P450 310a1)	SID104183093	67803	54427	inactive
29	gek (genghis khan)	SID104184480	66490	70313	inactive
30	His2B:CG33894 + His2B:CG33872 + His2B:CG33902 + 20 more	SID104201057	1.92e5	1.58e5	inactive
31	Pgant6 (Polypeptide N-Acetylgalactosaminyltransferase 6)	SID104188344	83967	37100	inactive
32	sff (sugar-free frosting)	SID104190382	40320	34220	inactive
33	CtsL1 (Cathepsin L1)	SID104185254	1.17e5	1.06e5	inactive
34	CtsL1 (Cathepsin L1)	SID104187155	66803	55020	inactive
